Experimental data from US20230265457A1.
Results are given in words; binding and its absence hold for the method and conditions named. Some binding calls cover weakened binding; strength is not graded here.

Target: T1, Mouse IL-12 P35 subunit (mouse) (UniProt P43431)
T1 sequence: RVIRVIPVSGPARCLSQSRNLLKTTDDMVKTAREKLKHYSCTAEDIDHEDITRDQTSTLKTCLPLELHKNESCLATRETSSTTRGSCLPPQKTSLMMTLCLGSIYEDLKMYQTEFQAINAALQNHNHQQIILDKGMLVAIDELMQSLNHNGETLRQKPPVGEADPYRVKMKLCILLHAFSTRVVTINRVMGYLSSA
Experiment: Western blot of secreted protein from mIL-12 vector-transduced A375 clones, reducing versus non-reducing

B1: Mouse IL-12 P40 subunit (ligand)
chain: MWELEKDVYVVEVDWTPDAPGETVNLTCDTPEEDDITWTSDQRHGVIGSGKTLTITVKEFLDAGQYTCHKGGETLSHSHLLLHKKENGIWSTEILKNFKNKTFLKCEAPNYSGRFTCSWLVQRNMDLKFNIKSSSSSPDSRAVTCGMASLSAEKVTLDQRDYEKYSVSCQEDVTCPTAEETLPIELALEARQQNKYENYSTSFFIRDIIKPDPPKNLQMKPLKNSQVEVSWEYPDSWSTPHSYFSLKFFVRIQRKKEKMKETEEGCNQKGAFLVEKTSTEVQCKGGNVCVQAQDRYYNSSCSKWACVPCRVRSRR
With B1 the binding was “binds”.
